Laboratory results as given in publication PMC7819943, “Rice protein-binding microarrays: a tool to detect cis-acting elements near promoter regions in rice”.
This is one part of the list.

Chains of the proteins cited; added tags and fusions are not shown.
UniProt Q0JBA9, entry or part of it: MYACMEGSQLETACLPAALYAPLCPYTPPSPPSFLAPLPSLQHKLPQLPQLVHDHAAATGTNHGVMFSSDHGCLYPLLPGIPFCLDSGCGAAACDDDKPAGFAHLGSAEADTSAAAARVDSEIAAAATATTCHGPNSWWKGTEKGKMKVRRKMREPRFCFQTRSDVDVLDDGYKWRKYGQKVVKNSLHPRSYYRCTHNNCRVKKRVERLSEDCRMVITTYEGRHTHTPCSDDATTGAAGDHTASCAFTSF

molecular target: OsWRKY34 (Oryza sativa, UniProt Q0JBA9 1-250); assay: protein-binding microarray (RPBM); PBS, 2% BSA, 51.3 ng/ul salmon testes DNA, 50 uM zinc acetate, 200 nM TF, 25 C, 1 h; high values mean tight binding; settings: protein: recombinant; tags: N-terminal polyhistidine and DsRed monomer fusion (pET32a); label: CyDye5-dUTP incorporated in the synthesized complementary strand; 3' TTTTT single-stranded linker to array surface; dsDNA, one strand shown
How it was run: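 Per-feature fluorescence intensity (arbitrary units), read on an Axon 4000B scanner, is the binding signal. Transcription factors carrying an N-terminal polyhistidine tag and DsRed fusion were expressed in E. coli BL21-CodonPlus and purified on Ni–NTA. A custom Agilent array, made double-stranded by primer extension with Cy5-dUTP and blocked with 2% BSA, was incubated with 200 nM protein in PBS, 2% BSA, salmon testes DNA and 50 µM zinc acetate at 25 °C for 1 h and then washed.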

Sequence | binding signal
TCTCCATTTGGGCCACTGTTGCATTTTCCTACTTTGCTACCGGAGTCACCTAGTGCAG | 10500 fluorescence intensity (a.u.)
AACAGGGCCATAAGCGTGCACATTTGCATTATATTTTTCCCGGAGTCACCTAGTGCAG | 8660 fluorescence intensity (a.u.)
GCTTCGCGATAAATACGATATTTTTTTTTGAGATTTTTTTCGGAGTCACCTAGTGCAG | 8200 fluorescence intensity (a.u.)
TCTACCTACTTTCTTAATACACGTGCGTACCTAAAAAAATCGGAGTCACCTAGTGCAG | 8280 fluorescence intensity (a.u.)
CTAATGTTTTTGCTCTATTTTATTTTGTGTTGTGACCAAACGGAGTCACCTAGTGCAG | 10600 fluorescence intensity (a.u.)
TCCCTCGCCGCCGGCCGCCGCCCGCAGATTGGATTGGATTCGGAGTCACCTAGTGCAG | 11500 fluorescence intensity (a.u.)
AAAATCTCTGAAACCCAACTTCTCTAGCTTCTGGCTTCTTCGGAGTCACCTAGTGCAG | 8520 fluorescence intensity (a.u.)
GGTGGCGTTTCGTTCCGTTGGCGGCGGGCGGAGGTGATTGCGGAGTCACCTAGTGCAG | 9630 fluorescence intensity (a.u.)
AGAGTGGGAACGTGATGGGTCTTGGGGCTTTTGCCGCCAACGGAGTCACCTAGTGCAG | 8190 fluorescence intensity (a.u.)
TTTCGATCCGATCCCTGCTATTTTATCTTTGCTCCTTTTACGGAGTCACCTAGTGCAG | 13700 fluorescence intensity (a.u.)
CATCATCGGCCACTGTTTATATAACTTTTGTTTTTTTAATCGGAGTCACCTAGTGCAG | 11900 fluorescence intensity (a.u.)
AACGGTACCATCACCATCATTTATCATGGGCACAACTTGCCGGAGTCACCTAGTGCAG | 8810 fluorescence intensity (a.u.)
CTCGACCTCTCTTCCTTATGCTCTTCTGCAAGCTGTCGCACGGAGTCACCTAGTGCAG | 8520 fluorescence intensity (a.u.)
CCTTCCCAGCCGTCTCGTCTCTCTCTCTCTCTCTCAAAAACGGAGTCACCTAGTGCAG | 9380 fluorescence intensity (a.u.)
ATCGCCTGCCATGTTTGGTCCTTCTGATCCCAGCTTGGTTCGGAGTCACCTAGTGCAG | 8090 fluorescence intensity (a.u.)
GCTGTCCCTATATACACAACATTTGACCAAGATGATGACGCGGAGTCACCTAGTGCAG | 10300 fluorescence intensity (a.u.)
CTACCACTGCCTCAAACCTTTCGTCTCGTCTCGTGTTTGACGGAGTCACCTAGTGCAG | 9630 fluorescence intensity (a.u.)
TTTTTTAAAATACAATCCTTTTACTGTGGCTGTTTGTAACCGGAGTCACCTAGTGCAG | 9640 fluorescence intensity (a.u.)
CCACTTTGACCACCGCCGCCCCGCCGGCTTCGCACGCCATCGGAGTCACCTAGTGCAG | 10000 fluorescence intensity (a.u.)
AATCATTCCGTTCAGTTATATCTGCTCGTTGCTCGTTGATCGGAGTCACCTAGTGCAG | 12600 fluorescence intensity (a.u.)
GTTTAAAGTTAGACCACATGCTTATTCTTTGTAACTTGCTCGGAGTCACCTAGTGCAG | 9730 fluorescence intensity (a.u.)

A second format for part of the listing above:
Sequence,binding signal
GCTGTCCCTATATACACAACATTTGACCAAGATGATGACGCGGAGTCACCTAGTGCAG,10300 fluorescence intensity (a.u.)
CTACCACTGCCTCAAACCTTTCGTCTCGTCTCGTGTTTGACGGAGTCACCTAGTGCAG,9630 fluorescence intensity (a.u.)

Later entries

Sequence | binding signal
ACGGTGTGTCTCTAGATTTTCTTCTTTAATTAGTTTGTGTCGGAGTCACCTAGTGCAG | 8220 fluorescence intensity (a.u.)
TCCTTCGTCGCCTTCCGCCGCTACTCGATCAGCAGCTCAGCGGAGTCACCTAGTGCAG | 8570 fluorescence intensity (a.u.)
CCCTCGTCTCCGTCCTACTCGTACCTTCTAGATCATCATCCGGAGTCACCTAGTGCAG | 10600 fluorescence intensity (a.u.)
CTCTATCTGCTCGGCCTATCTCTCTTCGCCTCAGCCCATACGGAGTCACCTAGTGCAG | 9340 fluorescence intensity (a.u.)
CTGGTGTGAATAAAGCTCTTTGGAAATTTTAGTGGTAATTCGGAGTCACCTAGTGCAG | 8030 fluorescence intensity (a.u.)
TAGTGTAGGATTTCAATTCATTTGTTTTTCCTCCATTTATCGGAGTCACCTAGTGCAG | 8280 fluorescence intensity (a.u.)
CGACCCGGCCTCTCGCTCTCGTTGCCTTTCTTTCGCGCTCCGGAGTCACCTAGTGCAG | 10600 fluorescence intensity (a.u.)
ACATGCGTACTGTACATGTAACTACGACTTGTTGTCTGTCCGGAGTCACCTAGTGCAG | 10100 fluorescence intensity (a.u.)
TCCTGCGCGCGCTCATCAGTATTCAGTATCCGTCACTCCGCGGAGTCACCTAGTGCAG | 8420 fluorescence intensity (a.u.)
ACCGGGCATTCTCATCGGATCCATACAGCCCTAGCTAGCACGGAGTCACCTAGTGCAG | 9960 fluorescence intensity (a.u.)
AAGCGTACTCCTTCCCTGCAGCTGCTTCCATCAATACAATCGGAGTCACCTAGTGCAG | 10100 fluorescence intensity (a.u.)
GTCGATTCGCGTCACGTCAGTAGGTGGACTTAATTTGTTGCGGAGTCACCTAGTGCAG | 8100 fluorescence intensity (a.u.)
CTCGACGCCTCCACGGAATCGTCGCTGCATCTCCATTCCTCGGAGTCACCTAGTGCAG | 8120 fluorescence intensity (a.u.)
ACACGACTCTACTCGATTCGACCGTTCCGCCGCTTCCGCACGGAGTCACCTAGTGCAG | 11300 fluorescence intensity (a.u.)
GCCGTTGTTTTCGCAGCAGCGGCGGCGGCGGCGGTGGCGGCGGAGTCACCTAGTGCAG | 8750 fluorescence intensity (a.u.)
TGTCCCCTACCCCAGTTTAGCCGTCCTGCTGGCCTCACATCGGAGTCACCTAGTGCAG | 9400 fluorescence intensity (a.u.)
GTTTAGATTCAAAAATTTTTCTTCAAACTTTTACTTTTTCCGGAGTCACCTAGTGCAG | 9270 fluorescence intensity (a.u.)
AAAGTGTTTGGTACTTTGGTTTGGGGAGCTTGTTTGCCGACGGAGTCACCTAGTGCAG | 8460 fluorescence intensity (a.u.)
CGCAGCCACCGCCGCCGCCGCCTCGTCGCCAGGCACCGCGCGGAGTCACCTAGTGCAG | 9060 fluorescence intensity (a.u.)
CTCGCATGCTGCGCGCCTTCGTCGACGCTCACAACCGCGGCGGAGTCACCTAGTGCAG | 8310 fluorescence intensity (a.u.)
GCCACGAAACTGCCGCTTTCCTCGTCGCCGGTGCCGGCGCCGGAGTCACCTAGTGCAG | 9760 fluorescence intensity (a.u.)
